According to publication PMC6838331:
These are yes or no findings as the source states them, for the method shown. In cells and extracts the contact can be indirect. Some results given as binding are weak or reduced against the parent protein; the word gives no strength. Sequences can lack the tags named with a protein.

Protein sequences, listed by entry. Tags and fused reporters are not part of them.
UniProt Q92800: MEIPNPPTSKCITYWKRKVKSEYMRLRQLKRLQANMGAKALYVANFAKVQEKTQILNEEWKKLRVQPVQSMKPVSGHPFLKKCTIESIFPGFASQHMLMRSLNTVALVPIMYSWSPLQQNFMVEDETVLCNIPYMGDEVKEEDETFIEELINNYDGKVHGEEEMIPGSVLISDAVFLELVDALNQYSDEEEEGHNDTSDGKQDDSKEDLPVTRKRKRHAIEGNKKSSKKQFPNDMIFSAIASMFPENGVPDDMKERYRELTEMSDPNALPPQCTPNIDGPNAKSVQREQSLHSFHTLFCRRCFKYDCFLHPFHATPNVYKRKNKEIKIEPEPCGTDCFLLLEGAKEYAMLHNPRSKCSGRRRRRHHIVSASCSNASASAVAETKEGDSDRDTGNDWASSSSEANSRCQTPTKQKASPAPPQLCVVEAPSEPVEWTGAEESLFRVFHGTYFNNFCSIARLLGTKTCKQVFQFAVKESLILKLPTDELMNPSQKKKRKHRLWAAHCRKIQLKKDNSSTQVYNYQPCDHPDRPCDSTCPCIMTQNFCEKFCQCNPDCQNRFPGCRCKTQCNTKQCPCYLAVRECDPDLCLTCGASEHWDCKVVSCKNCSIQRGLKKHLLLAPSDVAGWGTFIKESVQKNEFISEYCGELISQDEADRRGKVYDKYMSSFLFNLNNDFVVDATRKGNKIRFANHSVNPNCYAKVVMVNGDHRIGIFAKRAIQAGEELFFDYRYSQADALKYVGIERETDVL

Molecular target: T1, FLAG-ETO-W (wild type) (UniProt Q06455)
T1 sequence: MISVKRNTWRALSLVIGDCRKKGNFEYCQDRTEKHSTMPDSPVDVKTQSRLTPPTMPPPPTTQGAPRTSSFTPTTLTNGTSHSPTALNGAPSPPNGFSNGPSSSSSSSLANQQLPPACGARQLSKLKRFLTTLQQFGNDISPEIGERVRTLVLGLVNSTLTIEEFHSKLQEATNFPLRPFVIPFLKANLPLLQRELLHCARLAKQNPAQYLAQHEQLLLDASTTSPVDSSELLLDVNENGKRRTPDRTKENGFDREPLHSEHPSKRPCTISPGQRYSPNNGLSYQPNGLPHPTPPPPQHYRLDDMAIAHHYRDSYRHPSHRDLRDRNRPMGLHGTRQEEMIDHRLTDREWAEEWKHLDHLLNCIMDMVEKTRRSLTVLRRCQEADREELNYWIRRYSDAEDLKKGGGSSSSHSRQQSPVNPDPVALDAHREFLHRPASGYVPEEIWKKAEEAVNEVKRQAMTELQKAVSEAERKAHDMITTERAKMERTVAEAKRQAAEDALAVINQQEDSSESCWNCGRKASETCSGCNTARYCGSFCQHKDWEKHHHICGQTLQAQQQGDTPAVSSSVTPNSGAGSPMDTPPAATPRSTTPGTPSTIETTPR
Experiment: co-IP; ETO immune complex probed for EZH1 (Supplementary Fig. 3a); cells and constructs not given

## His-EZH1-W (wild type) (from UniProt Q92800 1-747)
  binding: binds
